Primary screen of a compound library

Amino acid sequences for entries named in this document (tags omitted).
UniProt E9BF75, entry or part of it: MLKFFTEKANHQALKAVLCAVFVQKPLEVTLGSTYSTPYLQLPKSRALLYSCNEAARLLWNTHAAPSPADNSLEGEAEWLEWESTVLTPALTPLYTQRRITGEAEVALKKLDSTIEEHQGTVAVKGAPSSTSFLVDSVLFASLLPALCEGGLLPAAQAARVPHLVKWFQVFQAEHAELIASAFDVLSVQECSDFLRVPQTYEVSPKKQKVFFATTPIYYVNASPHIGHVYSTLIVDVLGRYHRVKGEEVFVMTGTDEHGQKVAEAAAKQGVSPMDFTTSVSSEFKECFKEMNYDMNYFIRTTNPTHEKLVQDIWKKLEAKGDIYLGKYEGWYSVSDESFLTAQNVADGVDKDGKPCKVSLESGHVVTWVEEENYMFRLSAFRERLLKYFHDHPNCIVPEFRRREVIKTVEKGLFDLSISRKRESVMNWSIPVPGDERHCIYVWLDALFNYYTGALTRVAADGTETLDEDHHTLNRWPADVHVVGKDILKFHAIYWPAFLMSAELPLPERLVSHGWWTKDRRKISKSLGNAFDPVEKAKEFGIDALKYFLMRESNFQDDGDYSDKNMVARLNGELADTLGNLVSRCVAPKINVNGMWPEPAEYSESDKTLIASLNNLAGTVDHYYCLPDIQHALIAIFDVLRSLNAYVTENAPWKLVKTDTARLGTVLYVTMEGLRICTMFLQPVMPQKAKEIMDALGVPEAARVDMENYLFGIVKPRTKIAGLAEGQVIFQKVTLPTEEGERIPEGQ

Source: ChEMBL document CHEMBL3988442, “University of Dundee, Small-Polar-MMV Screening Library” (2021).

Results are percentages, as filed. The record does not define 0% and 100%; most values in the screen are far below 50% and negative numbers occur (in some assays of this library far below -100). This is an unselected part of the compounds tested.

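Methionyl-tRNA synthetase (putative), Leishmania donovani (UniProt E9BF75). Primary screen of methionyl-tRNA synthetase; the read-out is not stated. The test concentration is not given. Values are per cent inhibition. Of about 68,000 compounds tested this way, about 24 (0.035%) reached 50% or more in at least one test.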

| SMILES | Inhibition |
|---|---|
| `CCCn1nc(C)c(C(=O)N(C)[C@@H]2CC[C@@H](OC)[C@@H]2O)c1C` | -3.416 |
| `CCN(Cc1nnsc1Cl)C(C)c1ccc(C#N)cc1` (stereo not given) | -3.169 |
| `O=C(c1ccco1)N1CCCC2(CCN(c3nncs3)C2)C1` (stereo not given) | 6.753 |
| `CNS(=O)(=O)CC1CCCN1c1ccccn1` (stereo not given) | 9.589 |
| `CCC1=N[C@@]2(CC[C@@H]3CN(CC4CC4)C[C@@H]32)C(=O)N1CC` | 12.39 |
| `Cc1ccc(S(=O)(=O)N2CC[C@@H]3C[C@H](NC(=O)c4[nH]ncc4Br)[C@@H]32)cc1` | 10.59 |
| `COc1ccccc1[C@@H]1CN(Cc2nccn2C)C[C@H]1C(=O)O` | 18.35 |
| `c1ccc(CCCN2CCN(c3ccc4nncn4n3)CC2)cc1` | 32.95 |
| `CSCC(C)(O)CNC(=O)c1cc(F)ccc1Br` (stereo not given) | 18.35 |
| `Cc1cc(NC(=O)c2ccc(Br)cc2F)n(C)n1` | 0.2584 |
| `COc1cccc(CN2CCC3(CCN(C(=O)C4CC=CC4)CC3)C2)c1` | 7.492 |
| `Cc1ccsc1C(Cc1ccccc1)NC(=O)CNC(=O)C1CC1` (stereo not given) | 9.749 |
| `CN1CCN(C(=O)CCn2nnc3ccccc32)CC(C(N)=O)C1` (stereo not given) | 18.44 |
| `Cc1nn(-c2ccccc2)c(C)c1CNC(=O)NC1CC1` | 12.03 |
| `CC(C)CCC(=O)NC(C#N)CC(C)C` (stereo not given) | 5.128 |
| `Cc1cc(C(=O)NCc2cccs2)c2c(C3CCCN3)noc2n1` (stereo not given) | 10.29 |
| `CN(C)C(=O)NCc1ncn2c1CN(Cc1ccco1)CCC2` | 11.5 |
| `CC(C)C(C(=O)N1CCN(Cc2ccccn2)CC1)n1cncn1` (stereo not given) | 14.44 |
| `CCC(CN1CCOCC1)NC(=O)Cc1c(C)[nH]c2cc(C)cc(C)c12` (stereo not given) | 10.97 |
| `CN(C)CCN1CCc2ncc(CN(C)Cc3ccco3)n2CC1` | 7.971 |
| `CCCc1cc(C(=O)NCCN2C(=O)c3ccccc3C2=O)[nH]n1` | 19.79 |
| `CN1CCC(C)(CN(C)C(=O)c2ccc(CCC(C)(C)O)cc2)C1` (stereo not given) | 8.517 |
| `COc1ccccc1CN(C)C(=O)CN1C(=O)OC[C@@H]1c1ccccc1` | 9.712 |
| `Cc1csc(C(C)(C)NCc2ncc(-c3ccc(F)cc3)o2)n1` | 0.361 |
| `Cc1ccnc(N2CCCC(c3nncn3C3CC3)C2)n1` (stereo not given) | 13.45 |
| `Cc1c(Cl)cccc1S(=O)(=O)NCc1cnc(N(C)C)n1C` | 12.09 |
| `Cc1noc(C(C)N2CCN(Cc3nc(C)c(C)o3)CC2)n1` (stereo not given) | 10 |
| `Cc1ccc(SCC(=O)NS(=O)(=O)c2ccc3c(c2)OCCO3)cc1` | 1.02 |
| `O=C(O)C1(Oc2cccc(F)c2)CCN(c2ccncc2)CC1` | 15.38 |
| `CC(C)c1nc2c(n1C)CCN(Cc1nc(-c3cccnc3)no1)C2` | 40.78 |
| `Cc1ccccc1OC1CCN(S(=O)(=O)c2c(C)n[nH]c2C)CC1` | 13.65 |
| `Cc1cc(C)c2cc(CNCCCN3CCOCC3)c(=O)[nH]c2c1` | 13.54 |
| `O=C(c1ccc2cc[nH]c2c1)N1CCCN(Cc2cscn2)CC1` | 6.011 |
| `Cc1cccc2c1nc1n2[C@@H](CNC(=O)NC(C)C)COC1` | 9.831 |
| `CCOc1ccnc(N2CCN(C(=O)c3ccc(C#N)cc3)CC2)n1` | 13.71 |
| `Cc1cccc(C)c1OCCCN1CCC(n2cncn2)CC1` | 7.165 |
| `CCCc1cnc(C)nc1N1CCC(F)(F)CC1` | 9.157 |
| `Cc1nc(CNc2nc(-c3ccco3)nc3c2CCNCC3)n[nH]1` | 12.03 |
| `CC(C)NC(=O)N1CCC2(CC1)[C@@H]1CN(C(=O)N(C)C)C[C@@H]1C(=O)N2C` | 10.56 |
| `COc1cc(Cl)c(C)cc1NC(=O)CNc1ccn(CC(N)=O)n1` | 11.45 |
| `CCc1nc(CN2CCCC(N(C)Cc3cnn(C)c3)C2)no1` (stereo not given) | 4.433 |
| `O=C(c1cnc(-c2ccccn2)s1)N1CCCC(n2cccn2)C1` (stereo not given) | 10.26 |
| `CC(=O)N[C@@H]1C[C@H](Cc2ccccc2)O[C@H](c2ccc(C(=O)O)cc2)C1` | 11.17 |
| `Cc1nc(O)c2nnn(C[C@H]3CCCN3C(=O)c3cccc(F)c3)c2n1` | 11.3 |
| `Cc1ccc(NC2CCN(C(=O)COc3cccnc3)CC2)nn1` | 8.333 |
| `O=C(O)C1(O)CCN(c2ccc3cccc(Cl)c3n2)CC1` | 17.96 |
| `CS(=O)(=O)N1CCN(C(=O)c2cc(-c3cccs3)cs2)CC1` | 15.01 |
| `Fc1cccnc1N1CCOCC2(CCCNC2)C1` (stereo not given) | 10.22 |
| `O=C(O)c1cc2c(nc1NCC1CC1)CCN(C1CCOC1)CC2` (stereo not given) | 10.64 |
| `N#Cc1ccc(CN2CCC(CN3CCOCC3)C2)cc1` (stereo not given) | 12.91 |
| `COc1ccccc1C(C)(C)NC(=O)Nc1ccc(F)c(C(N)=O)c1` | 12.71 |
| `COCc1nccc(C2CCCN(Cc3ccc(C#N)cc3F)C2)n1` (stereo not given) | 6.425 |
| `Cc1nc(-c2ccccc2)cc2nn(CC(N)=O)c(=O)n12` | 11.65 |
| `CO[C@H]1CCN(C(=O)Cc2ccccn2)[C@H]1Cc1ccncc1` | 10.8 |
| `Nc1ccncc1-n1cc(CCO)cn1` | 1.25 |
| `Cc1[nH]ccc1C(=O)N1CCOCC12CCCC2` | 16.33 |
| `O=C(Nc1ccnc(OC2CCOC2)c1)c1cc(F)ccc1F` (stereo not given) | 1.77 |

The first 7 entries again:

{"smiles": "CCCn1nc(C)c(C(=O)N(C)[C@@H]2CC[C@@H](OC)[C@@H]2O)c1C", "Inhibition": -3.416}
{"smiles": "CCN(Cc1nnsc1Cl)C(C)c1ccc(C#N)cc1", "stereo": "stereo not given", "Inhibition": -3.169}
{"smiles": "O=C(c1ccco1)N1CCCC2(CCN(c3nncs3)C2)C1", "stereo": "stereo not given", "Inhibition": 6.753}
{"smiles": "CNS(=O)(=O)CC1CCCN1c1ccccn1", "stereo": "stereo not given", "Inhibition": 9.589}
{"smiles": "CCC1=N[C@@]2(CC[C@@H]3CN(CC4CC4)C[C@@H]32)C(=O)N1CC", "Inhibition": 12.39}
{"smiles": "Cc1ccc(S(=O)(=O)N2CC[C@@H]3C[C@H](NC(=O)c4[nH]ncc4Br)[C@@H]32)cc1", "Inhibition": 10.59}
{"smiles": "COc1ccccc1[C@@H]1CN(Cc2nccn2C)C[C@H]1C(=O)O", "Inhibition": 18.35}